# Test results published in patent US20230406933A1.
# By UniProt entry, the sequences of proteins in these tests, tags left out.
# UniProt Q9NZQ7: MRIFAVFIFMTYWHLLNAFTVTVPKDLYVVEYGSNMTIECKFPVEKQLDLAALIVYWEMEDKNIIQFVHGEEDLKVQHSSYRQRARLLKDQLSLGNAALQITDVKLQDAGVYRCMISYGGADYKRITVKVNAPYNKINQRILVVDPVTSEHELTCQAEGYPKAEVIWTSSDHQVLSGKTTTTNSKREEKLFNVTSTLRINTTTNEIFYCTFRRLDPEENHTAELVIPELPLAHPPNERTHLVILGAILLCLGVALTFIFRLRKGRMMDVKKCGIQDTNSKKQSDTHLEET
# No constants are given. Whether binding was seen depends on the method and setting. Some entries that bind do so weakly or less than the wild type.
# Columns and labels:
# [1] = target: recombinant human PD-L1 (human) (UniProt Q9NZQ7); assay: binding ELISA, PD-L1 coated, anti-Myc HRP detection
# [2] = target: recombinant human PD-L1 (human) (UniProt Q9NZQ7); assay: binding ELISA on coated PD-L1, anti-Myc HRP (method of Example 6)
# [3] = target: recombinant human PD-L1 (human) (UniProt Q9NZQ7); assay: binding ELISA on coated PD-L1 after one week at -20, 4 and 37 C, anti-Myc HRP
# [4] = target: recombinant human PD-L1 (human) (UniProt Q9NZQ7); assay: binding ELISA on coated PD-L1, anti-Myc HRP; sdAb stored one week at 4 C
# [5] = target: recombinant human PD-L1 (human) (UniProt Q9NZQ7); assay: binding ELISA on coated PD-L1, anti-Myc HRP; sdAb stored one week at 37 C
# [6] = target: recombinant human PD-L1 (human) (UniProt Q9NZQ7); assay: binding ELISA on coated PD-L1, anti-Myc HRP; sdAb stored one week at -20 C
# [7] = target: PDL1 coated in the commercial PD1:PDL1 inhibition assay (Acro Biosystems Cat# EP-101) (Homo sapiens (Human)) (UniProt Q9NZQ7); assay: Acro Biosystems PD1:PDL1 inhibition assay (EP-101): PDL1 coated, biotinylated PD1 detected with streptavidin-HRP; blocked ligand: biotinylated PD1
# [8] = target: recombinant human PD-L1 (human) (UniProt Q9NZQ7); assay: binding ELISA on coated PD-L1, anti-Myc HRP
Binder,binding [1],binding [2],binding [3],binding [4],binding [5],binding [6],binding [7],binding [8]
mutant sdAb clone GS659 (alanine substitution in CDR3 of humanised 32.1A1) (VHH) VHH: QVQLVESGGGLVQPGGSLRLSCAASGRTFREYGMGWFRQAPGKGLEWVATISSSGSYSYYADSVKGRFTISRDNSKNTLYLQMNSLRAEDTAVYYCAASSLLRGSSSRAESYDAWGQGTLVTVSS,,binds,,,,,,binds
mutant sdAb clone GS651 (alanine substitution in CDR3 of humanised 32.1A1) (VHH) VHH: QVQLVESGGGLVQPGGSLRLSCAASGRTFREYGMGWFRQAPGKGLEWVATISSSGSYSYYADSVKGRFTISRDNSKNTLYLQMNSLRAEDTAVYYCAASSLLRGASSRAESYDSWGQGTLVTVSS,,binds,,,,,,binds

# The remaining lines, values ahead:
binding [1],binding [2],binding [3],binding [4],binding [5],binding [6],binding [7],binding [8],Binder
binds,binds,binds,binds,binds,binds,binds,,humanised 32.1A1 clone (VHH) VHH: QVQLVESGGGLVQPGGSLRLSCAASGRTFREYGMGWFRQAPGKGLEWVATISSSGSYSYYADSVKGRFTISRDNSKNTLYLQMNSLRAEDTAVYYCAASSLLRGSSSRAESYDSWGQGTLVTVSS
,binds,,,,,,binds,mutant sdAb clone GS656 (alanine substitution in CDR3 of humanised 32.1A1) (VHH) VHH: QVQLVESGGGLVQPGGSLRLSCAASGRTFREYGMGWFRQAPGKGLEWVATISSSGSYSYYADSVKGRFTISRDNSKNTLYLQMNSLRAEDTAVYYCAASSLLRGSSSRAEAYDSWGQGTLVTVSS
,binds,,,,,,binds,mutant sdAb clone GS645 (alanine substitution in CDR3 of humanised 32.1A1) (VHH) VHH: QVQLVESGGGLVQPGGSLRLSCAASGRTFREYGMGWFRQAPGKGLEWVATISSSGSYSYYADSVKGRFTISRDNSKNTLYLQMNSLRAEDTAVYYCAAASLLRGSSSRAESYDSWGQGTLVTVSS
